Measurements reported in PubChem BioAssay AID652243 (Drosophila RNAi Screening Center, 2013).
The screen tested about 24,000 reagents; shown is an unselected part of those that have a named target and a result. Of all reagents, 246 (1%) got an active call. 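Plates not normalised; calls are printed but the firefly/Renilla ratio behind them is not deposited; fold cut for lowering reported inconsistently.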 Raw values are not corrected between plates. Unmarked entries are inactive. A plus sign joins genes that one reagent is predicted to hit. Not given: the amount of reagent.

Aim: 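Knock-downs that decrease or increase androgen receptor reporter signal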 (primary screen)
Cells: Drosophila S2R+ cells
Knock-down reagent: long dsRNA against Drosophila genes
Duration: 72 h (48 h, then 24 h hormone)
Challenge: synthetic androgen R1881 at 10 nM for 24 h
Measured: 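Per-well raw luminescence of the androgen-driven firefly reporter and of the Renilla control, two replicates each, without normalisation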
Scale: firefly reporter light: higher = more light from androgen-responsive reporter; Renilla control light: higher = more constitutive control signal (cell number, transfection)
Call rule: 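Across duplicate plates, a knock-down whose log firefly/Renilla ratio shifted a set fold down or up from the GFP/LacZ control mean was a hit; the downward cut appears as both 1.5 and 3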
Meaning of the calls: active = hit: reporter lowered or raised; inactive = no hit

predicted target | amplicon | firefly reporter light, replicate 1 | firefly reporter light, replicate 2 | Renilla control light, replicate 1 | Renilla control light, replicate 2
CG17127 | DRSC02581 | 2.04e5 | 2.35e5 | 1.63e6 | 1.77e6
CG17127 | DRSC28608 | 3.36e5 | 3.28e5 | 1.68e6 | 1.69e6
frm | DRSC09753 | 6.39e5 | 6.79e5 | 1.98e6 | 1.46e6
frm | DRSC25370 | 1.07e6 | 1.14e6 | 1.13e6 | 9.84e5
frm | DRSC39047 | 8.63e5 | 8.27e5 | 1.73e6 | 2.15e6
yellow-b | DRSC03639 | 9.75e5 | 1.10e6 | 1.62e6 | 1.19e6
mil | DRSC15696 | 2.15e5 | 2.06e5 | 3.12e6 | 3.61e6
stc | DRSC03620 | 4.52e5 | 5.96e5 | 1.29e6 | 1.27e6
CG5068 | DRSC10476 | 1.09e6 | 1.48e6 | 1.13e6 | 2.53e6
CG15279 | DRSC01935 | 9.14e5 | 1.15e6 | 1.47e6 | 1.36e6
CG15279 | DRSC27347 | 1.78e5 | 3.09e5 | 7.65e5 | 9.80e5
CG15144 | DRSC02445 | 83104 | 86545 | 9.92e5 | 1.32e6
CG15144 | DRSC27073 | 4.65e5 | 3.13e5 | 5.02e5 | 3.15e5
CG12054 | DRSC23137 | 3.88e5 (active) | 4.85e5 | 2.20e6 | 2.72e6
CG33927 | DRSC37831 | 1.27e6 | 1.17e6 | 1.77e6 | 1.72e6
CG16854 | DRSC02536 | 2.47e5 | 3.14e5 | 2.30e6 | 2.70e6
Z600 | DRSC11317 | 2.38e5 | 1.68e5 | 2.84e6 | 2.20e6
CR32745 | DRSC17442 | 6.23e5 | 8.34e5 | 1.29e6 | 1.36e6
CR32745 | DRSC29689 | 8.79e5 | 7.21e5 | 1.59e6 | 1.42e6
jp | DRSC02213 | 8.27e5 | 5.87e5 | 2.14e6 | 2.30e6
ND-ACP | DRSC08724 | 1.07e5 | 1.45e5 | 1.14e6 | 1.23e6
Daxx | DRSC03255 | 6.05e5 | 6.85e5 | 2.33e6 | 2.28e6
Daxx | DRSC29680 | 3.65e5 | 9.33e5 | 7.73e5 | 7.73e5
CG16863 | DRSC01892 | 2.14e5 | 2.06e5 | 1.78e6 | 2.03e6
MED6 | DRSC16500 | 70631 | 1.22e5 | 6.04e5 | 7.65e5
EMC7 | DRSC07162 | 76573 (active) | 85657 | 2.24e6 | 2.24e6
CG13137 | DRSC02234 | 2.29e5 | 2.24e5 | 7.94e5 | 7.54e5
slif | DRSC11635 | 32617 | 74432 | 3.26e5 | 4.86e5
slif | DRSC27438 | 2.57e5 | 2.26e5 | 6.45e5 | 7.31e5
Pli | DRSC16792 | 1.53e5 | 1.38e5 | 1.10e6 | 1.11e6
CG14234 | DRSC19317 | 6.15e5 | 5.36e5 | 6.18e5 | 4.24e5
CG14234 | DRSC19589 | 1.46e5 | 1.57e5 | 6.04e5 | 5.30e5
hoip | DRSC03546 | 88569 | 90167 | 3.45e5 | 2.99e5
Or85c | DRSC16766 | 75150 | 80710 | 1.19e6 | 1.22e6
CG5070 | DRSC19932 | 3.57e5 | 3.76e5 | 2.82e6 | 2.56e6
CG5070 | DRSC28082 | 7.97e5 | 1.15e6 | 1.84e6 | 1.81e6
CG34221 | DRSC06150 | 3.15e5 | 2.16e5 | 2.40e6 | 2.08e6
GLS | DRSC07261 | 8.15e5 | 1.19e6 | 1.55e6 | 1.43e6
GLS | DRSC25962 | 2.84e5 | 2.46e5 | 4.92e5 | 5.10e5
mars | DRSC06656 | 1.65e5 | 4.04e5 | 1.76e6 | 2.00e6
BNIP3 | DRSC11761 | 3.14e5 | 3.14e5 | 3.11e6 | 2.93e6
CG18528 | DRSC15340 | 1.50e5 | 1.85e5 | 2.48e6 | 2.45e6
asRNA:CR30267 + CG42260 | DRSC03953 | 1.73e5 | 2.16e5 | 4.41e5 | 6.47e5
hoe2 | DRSC00459 | 2.15e5 | 1.08e5 | 2.47e6 | 1.06e6
CG8539 | DRSC10988 | 1.08e6 | 7.55e5 | 1.09e6 | 1.89e6
CG8539 | DRSC21798 | 4.95e5 | 3.97e5 | 2.52e6 | 2.76e6
CG8539 | DRSC28192 | 6.29e5 | 5.39e5 | 1.42e6 | 1.10e6
Ugt36A1 | DRSC00748 | 1.19e5 | 92159 | 1.04e6 | 8.90e5
Ugt36A1 | DRSC29161 | 4.77e5 | 4.33e5 | 1.40e6 | 1.26e6
fd3F + CR42499 | DRSC18160 | 2.18e5 | 3.18e5 | 2.47e6 | 3.03e6
fd3F + CR42499 | DRSC18161 | 91988 | 99070 | 1.26e6 | 1.65e6
fd3F + CR42499 | DRSC28554 | 4.36e5 | 6.78e5 | 8.58e5 | 1.26e6
Uxt | DRSC01962 | 1.50e5 | 1.40e5 | 2.18e6 | 2.52e6
SC35 | DRSC03425 | 2.45e5 | 4.16e5 | 2.34e6 | 2.68e6
SC35 | DRSC25427 | 8.54e5 | 5.43e5 | 1.93e6 | 7.59e5
SC35 | DRSC27081 | 1.80e5 | 2.00e5 | 5.12e5 | 2.33e5
SC35 | DRSC39081 | 4.73e5 | 3.52e5 | 1.31e6 | 1.13e6
spin | DRSC07176 | 2.70e5 | 2.87e5 | 3.43e6 | 2.89e6
spin | DRSC22271 | 7.82e5 | 8.81e5 | 1.83e6 | 1.77e6

8 neighbouring entries already listed, quoted:
predicted target | amplicon | firefly reporter light, replicate 1 | firefly reporter light, replicate 2 | Renilla control light, replicate 1 | Renilla control light, replicate 2
CG15144 | DRSC02445 | 83104 | 86545 | 9.92e5 | 1.32e6
CG15144 | DRSC27073 | 4.65e5 | 3.13e5 | 5.02e5 | 3.15e5
CG12054 | DRSC23137 | 3.88e5 (active) | 4.85e5 | 2.20e6 | 2.72e6
CG33927 | DRSC37831 | 1.27e6 | 1.17e6 | 1.77e6 | 1.72e6
CG16854 | DRSC02536 | 2.47e5 | 3.14e5 | 2.30e6 | 2.70e6
Z600 | DRSC11317 | 2.38e5 | 1.68e5 | 2.84e6 | 2.20e6
CR32745 | DRSC17442 | 6.23e5 | 8.34e5 | 1.29e6 | 1.36e6
CR32745 | DRSC29689 | 8.79e5 | 7.21e5 | 1.59e6 | 1.42e6
